{"source": "PubChem BioAssay AID1508597 (Cure First, 2020)", "aim": "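Survival screen with siRNA in ovarian cancer cells derived from patients, with or without rucaparib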 (primary screen)", "cells": "human ovarian carcinoma lines grown from tumours: OCI-P5x (papillary serous) and OCI-C5x (clear cell)", "reagent": "siRNA pool against human genes, 1.25 pmol siRNA per well", "time to read-out": "72 h or 96 h, depending on the cell culture", "challenge": "rucaparib 20 µM (about IC30) or vehicle, present until read-out", "read-out": "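Luminescent ATP-based viability assay read 72 or 96 h after transfection, depending on culture, given as normalised percent viability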", "direction": "viability, normalised: higher = more viable cells remaining", "call rule": "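Active when normalised viability falls below 80 percent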", "meaning of the calls": "active = viability under 80%; inactive = viability 80% or more", "note": "The deposit covers about 2,100 reagents; below is an unselected part. 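Calls flag viability under 80% in either arm, not effects specific to rucaparib; the reference for percent is not stated.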 Unmarked entries are inactive. Not given: the 100% reference."}
{"gene": "SIRT2 (GeneID 22933)", "rucaparib or vehicle": "Rucaparib", "cell line": "OCI-C5x (clear cell)", "technical replicate": "1", "viability, normalised (%)": "40 (active)"}
{"gene": "SIRT2 (GeneID 22933)", "rucaparib or vehicle": "Rucaparib", "cell line": "OCI-C5x (clear cell)", "technical replicate": "2", "viability, normalised (%)": "35.3 (active)"}
{"gene": "SIRT2 (GeneID 22933)", "rucaparib or vehicle": "Rucaparib", "cell line": "OCI-C5x (clear cell)", "technical replicate": "3", "viability, normalised (%)": "27.5 (active)"}
{"gene": "SIRT2 (GeneID 22933)", "rucaparib or vehicle": "Rucaparib", "cell line": "OCI-P5x (serous)", "technical replicate": "1", "viability, normalised (%)": "38.7 (active)"}
{"gene": "SIRT2 (GeneID 22933)", "rucaparib or vehicle": "Rucaparib", "cell line": "OCI-P5x (serous)", "technical replicate": "2", "viability, normalised (%)": "51.5 (active)"}
{"gene": "SIRT2 (GeneID 22933)", "rucaparib or vehicle": "Rucaparib", "cell line": "OCI-P5x (serous)", "technical replicate": "3", "viability, normalised (%)": "47.5 (active)"}
{"gene": "SIRT2 (GeneID 22933)", "rucaparib or vehicle": "Vehicle", "cell line": "OCI-C5x (clear cell)", "technical replicate": "1", "viability, normalised (%)": "24.3 (active)"}
{"gene": "SIRT2 (GeneID 22933)", "rucaparib or vehicle": "Vehicle", "cell line": "OCI-C5x (clear cell)", "technical replicate": "2", "viability, normalised (%)": "28.8 (active)"}
{"gene": "SIRT2 (GeneID 22933)", "rucaparib or vehicle": "Vehicle", "cell line": "OCI-C5x (clear cell)", "technical replicate": "3", "viability, normalised (%)": "30.8 (active)"}
{"gene": "SIRT2 (GeneID 22933)", "rucaparib or vehicle": "Vehicle", "cell line": "OCI-P5x (serous)", "technical replicate": "1", "viability, normalised (%)": "58 (active)"}
{"gene": "SIRT2 (GeneID 22933)", "rucaparib or vehicle": "Vehicle", "cell line": "OCI-P5x (serous)", "technical replicate": "2", "viability, normalised (%)": "67.4 (active)"}
{"gene": "SIRT2 (GeneID 22933)", "rucaparib or vehicle": "Vehicle", "cell line": "OCI-P5x (serous)", "technical replicate": "3", "viability, normalised (%)": "74.2 (active)"}
{"gene": "JMJD1C (GeneID 221037)", "rucaparib or vehicle": "Rucaparib", "cell line": "OCI-C5x (clear cell)", "technical replicate": "1", "viability, normalised (%)": "48.2 (active)"}
{"gene": "JMJD1C (GeneID 221037)", "rucaparib or vehicle": "Rucaparib", "cell line": "OCI-C5x (clear cell)", "technical replicate": "2", "viability, normalised (%)": "57.6 (active)"}
{"gene": "JMJD1C (GeneID 221037)", "rucaparib or vehicle": "Rucaparib", "cell line": "OCI-C5x (clear cell)", "technical replicate": "3", "viability, normalised (%)": "45.9 (active)"}
{"gene": "JMJD1C (GeneID 221037)", "rucaparib or vehicle": "Rucaparib", "cell line": "OCI-P5x (serous)", "technical replicate": "1", "viability, normalised (%)": "76.3 (active)"}
{"gene": "JMJD1C (GeneID 221037)", "rucaparib or vehicle": "Rucaparib", "cell line": "OCI-P5x (serous)", "technical replicate": "2", "viability, normalised (%)": "75.3 (active)"}
{"gene": "JMJD1C (GeneID 221037)", "rucaparib or vehicle": "Rucaparib", "cell line": "OCI-P5x (serous)", "technical replicate": "3", "viability, normalised (%)": 84.8}
{"gene": "JMJD1C (GeneID 221037)", "rucaparib or vehicle": "Vehicle", "cell line": "OCI-C5x (clear cell)", "technical replicate": "1", "viability, normalised (%)": "63.2 (active)"}
{"gene": "JMJD1C (GeneID 221037)", "rucaparib or vehicle": "Vehicle", "cell line": "OCI-C5x (clear cell)", "technical replicate": "2", "viability, normalised (%)": "63.1 (active)"}
{"gene": "JMJD1C (GeneID 221037)", "rucaparib or vehicle": "Vehicle", "cell line": "OCI-C5x (clear cell)", "technical replicate": "3", "viability, normalised (%)": "79.2 (active)"}
{"gene": "JMJD1C (GeneID 221037)", "rucaparib or vehicle": "Vehicle", "cell line": "OCI-P5x (serous)", "technical replicate": "1", "viability, normalised (%)": "73.4 (active)"}
{"gene": "JMJD1C (GeneID 221037)", "rucaparib or vehicle": "Vehicle", "cell line": "OCI-P5x (serous)", "technical replicate": "2", "viability, normalised (%)": "78.5 (active)"}
{"gene": "JMJD1C (GeneID 221037)", "rucaparib or vehicle": "Vehicle", "cell line": "OCI-P5x (serous)", "technical replicate": "3", "viability, normalised (%)": "41.9 (active)"}
{"gene": "ITGB5 (GeneID 3693)", "rucaparib or vehicle": "Rucaparib", "cell line": "OCI-C5x (clear cell)", "technical replicate": "1", "viability, normalised (%)": "36.2 (active)"}
{"gene": "ITGB5 (GeneID 3693)", "rucaparib or vehicle": "Rucaparib", "cell line": "OCI-C5x (clear cell)", "technical replicate": "2", "viability, normalised (%)": "46.2 (active)"}
{"gene": "ITGB5 (GeneID 3693)", "rucaparib or vehicle": "Rucaparib", "cell line": "OCI-C5x (clear cell)", "technical replicate": "3", "viability, normalised (%)": "35.5 (active)"}
{"gene": "ITGB5 (GeneID 3693)", "rucaparib or vehicle": "Rucaparib", "cell line": "OCI-P5x (serous)", "technical replicate": "1", "viability, normalised (%)": "57.6 (active)"}
{"gene": "ITGB5 (GeneID 3693)", "rucaparib or vehicle": "Rucaparib", "cell line": "OCI-P5x (serous)", "technical replicate": "2", "viability, normalised (%)": "53.2 (active)"}
{"gene": "ITGB5 (GeneID 3693)", "rucaparib or vehicle": "Rucaparib", "cell line": "OCI-P5x (serous)", "technical replicate": "3", "viability, normalised (%)": "61.6 (active)"}
{"gene": "ITGB5 (GeneID 3693)", "rucaparib or vehicle": "Vehicle", "cell line": "OCI-C5x (clear cell)", "technical replicate": "1", "viability, normalised (%)": "37.2 (active)"}
{"gene": "ITGB5 (GeneID 3693)", "rucaparib or vehicle": "Vehicle", "cell line": "OCI-C5x (clear cell)", "technical replicate": "2", "viability, normalised (%)": "28.7 (active)"}
{"gene": "ITGB5 (GeneID 3693)", "rucaparib or vehicle": "Vehicle", "cell line": "OCI-C5x (clear cell)", "technical replicate": "3", "viability, normalised (%)": "27.6 (active)"}
{"gene": "ITGB5 (GeneID 3693)", "rucaparib or vehicle": "Vehicle", "cell line": "OCI-P5x (serous)", "technical replicate": "1", "viability, normalised (%)": "57.2 (active)"}
{"gene": "ITGB5 (GeneID 3693)", "rucaparib or vehicle": "Vehicle", "cell line": "OCI-P5x (serous)", "technical replicate": "2", "viability, normalised (%)": "66.1 (active)"}
{"gene": "ITGB5 (GeneID 3693)", "rucaparib or vehicle": "Vehicle", "cell line": "OCI-P5x (serous)", "technical replicate": "3", "viability, normalised (%)": "70.8 (active)"}
